# From PubChem BioAssay (EPA / NIEHS)
# Chains of the proteins cited; added tags and fusions are not shown. Lines headed by an entry give the natural chain unless they say otherwise; changes in a name come on top.
# UniProt P19838: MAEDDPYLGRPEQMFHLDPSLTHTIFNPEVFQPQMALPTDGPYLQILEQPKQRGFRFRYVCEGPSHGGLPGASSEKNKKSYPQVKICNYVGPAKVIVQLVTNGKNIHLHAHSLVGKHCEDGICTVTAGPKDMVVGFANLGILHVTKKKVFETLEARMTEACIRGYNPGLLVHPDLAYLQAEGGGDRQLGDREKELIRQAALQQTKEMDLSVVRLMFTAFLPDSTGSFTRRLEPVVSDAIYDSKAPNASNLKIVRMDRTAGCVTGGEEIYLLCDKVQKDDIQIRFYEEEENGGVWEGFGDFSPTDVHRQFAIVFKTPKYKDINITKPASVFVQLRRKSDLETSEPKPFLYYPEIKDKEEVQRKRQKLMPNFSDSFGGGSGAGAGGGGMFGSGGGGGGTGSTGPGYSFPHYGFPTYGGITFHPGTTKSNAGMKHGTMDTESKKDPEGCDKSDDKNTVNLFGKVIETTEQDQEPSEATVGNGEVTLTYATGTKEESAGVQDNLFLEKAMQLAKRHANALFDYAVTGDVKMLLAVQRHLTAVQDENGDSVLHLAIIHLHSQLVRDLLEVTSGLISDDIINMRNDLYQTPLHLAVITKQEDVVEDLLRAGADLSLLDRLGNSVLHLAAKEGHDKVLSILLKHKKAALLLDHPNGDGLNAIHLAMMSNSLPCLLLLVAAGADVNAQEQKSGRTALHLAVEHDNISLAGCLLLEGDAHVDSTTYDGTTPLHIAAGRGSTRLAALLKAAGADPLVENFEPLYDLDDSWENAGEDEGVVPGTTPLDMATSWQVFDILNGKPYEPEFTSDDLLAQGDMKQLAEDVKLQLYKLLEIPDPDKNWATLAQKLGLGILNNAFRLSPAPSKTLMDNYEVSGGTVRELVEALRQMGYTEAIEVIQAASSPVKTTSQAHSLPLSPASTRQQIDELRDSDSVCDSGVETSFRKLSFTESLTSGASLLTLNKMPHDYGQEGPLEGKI
# UniProt Q16236, whole entry, looked up: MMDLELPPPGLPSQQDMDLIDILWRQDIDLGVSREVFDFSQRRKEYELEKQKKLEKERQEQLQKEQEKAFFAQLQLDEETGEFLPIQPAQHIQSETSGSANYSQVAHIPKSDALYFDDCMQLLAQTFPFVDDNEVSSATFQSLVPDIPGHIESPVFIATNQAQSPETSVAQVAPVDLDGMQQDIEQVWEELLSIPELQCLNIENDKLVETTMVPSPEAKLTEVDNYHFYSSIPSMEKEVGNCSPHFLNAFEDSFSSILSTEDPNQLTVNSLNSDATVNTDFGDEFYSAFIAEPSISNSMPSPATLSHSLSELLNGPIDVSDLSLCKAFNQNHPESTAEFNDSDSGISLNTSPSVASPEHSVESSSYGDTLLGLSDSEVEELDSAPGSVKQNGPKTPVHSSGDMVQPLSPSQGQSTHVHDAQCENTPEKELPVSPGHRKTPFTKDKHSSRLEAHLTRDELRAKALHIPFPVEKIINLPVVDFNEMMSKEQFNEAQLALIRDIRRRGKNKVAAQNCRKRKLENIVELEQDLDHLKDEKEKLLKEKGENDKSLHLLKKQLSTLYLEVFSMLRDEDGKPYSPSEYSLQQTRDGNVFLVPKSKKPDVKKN
# For some of these results: Shown are results outside the selection of hits, which stands elsewhere. Records with an inconclusive call do not appear. The entries are a selection whose mix differs from that of the whole data set. Activity calls are given as the source filed them. Rule for the calls, unless noted: active = hit-call score of the fitted dose curve at least 0.9, where 1 is the maximum; inactive = score below 0.9.
# Tests used:
# [1] = CEETOX_H295R_PROG: CeeTox H295R High-throughput Steroidogenesis Assay for Progesterone (PROG) (AID 2283442); conditions: actives raise or lower the signal;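 note: human H295R adrenal cells primed with 10 µM forskolin before dosing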
# In short: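 H295R adrenal cells prestimulated 48 h with 10 uM forskolin, then exposed 48 h to test chemical in 0.1% DMSO. Progesterone in medium quantified by HPLC-MS/MS after MTBE extraction; viability checked by MTT in same wells.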
# [2] = read-out: cysteine-aspartic acid protease (CASP8), CASP8 (gene 841); experiment: LTEA_HepaRG_CASP8: Life Technologies and Expression Analysis (LTEA) Assay for cysteine-aspartic acid protease (CASP8) using HepaRG (AID 2283480); conditions: actives raise or lower the signal; mRNA level, 48 h
# In short: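 Differentiated HepaRG cells in serum-free induction medium, 48 h exposure, eight-point half-log series from 100 uM in 0.5% DMSO, duplicates. CASP8 mRNA by qRT-PCR, normalized to ACTB, GAPDH, POLR2A; bidirectional fit versus DMSO.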
# [3] = read-out: Ezrin (EZR), EZR (gene 7430); experiment: LTEA_HepaRG_EZR: Life Technologies and Expression Analysis (LTEA) Assay for Ezrin (EZR) using HepaRG (AID 2283491); conditions: actives raise or lower the signal; mRNA level, 48 h
# [4] = read-out: Glutathione S-transferase M3 (GSTM3), GSTM3 (gene 2947); experiment: LTEA_HepaRG_GSTM3: Life Technologies and Expression Analysis (LTEA) Assay for Glutathione S-transferase M3 (GSTM3) using HepaRG (AID 2283501); conditions: actives raise or lower the signal; mRNA level, 48 h
# In short: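 Differentiated human HepaRG cells were exposed in duplicate for 48 h in serum-free induction medium, 8 points from 100 uM top in half-log steps, 0.5% DMSO. GSTM3 mRNA was measured by TaqMan qRT-PCR, normalized to ACTB, GAPDH and POLR2A; bidirectional fit versus DMSO.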
# [5] = read-out: Nuclear factor NF-kappa-B p105 subunit (Homo sapiens) (UniProt P19838); experiment: LTEA_HepaRG_NFKB1: Life Technologies and Expression Analysis (LTEA) Assay for Nuclear Factor Kappa B Subunit 1 (NFKB1) using HepaRG (AID 2283521); conditions: actives raise or lower the signal; mRNA level, 48 h
# In short: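 Human HepaRG cells receive eight half-log concentrations, highest 100 uM, for 48 h. NFKB1 expression is then quantified by qRT-PCR and analysed for up- or down-regulation relative to 0.5% DMSO vehicle.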
# [6] = read-out: Forkhead box O3 (FOXO3), FOXO3 (gene 2309); experiment: LTEA_HepaRG_FOXO3: Life Technologies and Expression Analysis (LTEA) Assay for Forkhead box O3 (FOXO3) using HepaRG (AID 2283459); conditions: actives raise or lower the signal; mRNA level, 48 h
# In short: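 Differentiated human HepaRG cells, 48 h post-plating, exposed in duplicate for 48 h in serum-free induction medium; 8-point half-log series from 100 uM in 0.5% DMSO. FOXO3 mRNA by TaqMan qRT-PCR, normalized to ACTB/GAPDH/POLR2A; bidirectional fit versus DMSO.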
# [7] = read-out: ATP-citrate lyase (ACLY), ACLY (gene 47); experiment: LTEA_HepaRG_ACLY: Life Technologies and Expression Analysis (LTEA) Assay for ATP-citrate lyase (ACLY) using HepaRG (AID 2283466); conditions: actives raise or lower the signal; mRNA level, 48 h
# In short: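 Differentiated HepaRG cells exposed 48 h in serum-free induction medium to eight half-log concentrations up to 100 uM in 0.5% DMSO, duplicates. Transcript measured by Fluidigm TaqMan qRT-PCR, normalized to ACTB, GAPDH, POLR2A; bidirectional fit versus DMSO.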
# [8] = read-out: Nuclear factor erythroid 2-related factor 2 (Homo sapiens) (UniProt Q16236); experiment: LTEA_HepaRG_NFE2L2: Life Technologies and Expression Analysis (LTEA) Assay for Nuclear factor erythroid 2-related factor 2 (NFE2L2) Transcription Factor using HepaRG (AID 2283527); conditions: actives raise or lower the signal; mRNA level, 48 h;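 note: TaqMan qRT-PCR transcript level normalised to ACTB GAPDH and POLR2A housekeeping genes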
# In short: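 Differentiated human HepaRG cells, serum-free induction medium, exposed 48 h in duplicate to eight half-log concentrations up to 100 uM in 0.5% DMSO. NFE2L2 mRNA by Fluidigm TaqMan qRT-PCR, normalised to ACTB, GAPDH, POLR2A; bidirectional change versus DMSO.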
# [9] = ACEA_AR_antagonist_AUC_viability: ACEA Biosciences xCELLigence Real-Time Cell Analysis on Androgen Receptor Antagonism for Viability (AID 2283776; active = hit-call score of the fitted dose curve at least 0.9, where 1 is the maximum;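 note: 22Rv1 human prostate cancer cells growing on impedance electrode plates; area under impedance growth curve at 80 h after dosing as viability; hits lower the growth signal relative to DMSO meaning cytotoxicity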)
# In short: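 Viability endpoint from label-free cell-index monitoring: 22Rv1 cultures treated with an eight-point 1:4 dilution series starting at 100 uM final, AUC at 80 h fitted against DMSO.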
# [10] = read-out: catalase (CAT), CAT (gene 847); experiment: LTEA_HepaRG_CAT: Life Technologies and Expression Analysis (LTEA) Assay for catalase (CAT) using HepaRG (AID 2283452); conditions: actives raise or lower the signal; mRNA level, 48 h
# In short: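 HepaRG cells in serum-free induction medium, 0.5% DMSO vehicle, exposed 48 h in duplicate over 8 half-log concentrations from 100 uM. CAT mRNA measured by qRT-PCR, normalized to ACTB, GAPDH, POLR2A; bidirectional fit versus DMSO.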
# [11] = read-out: succinate dehydrogenase complex iron sulfur subunit B (SDHB), SDHB (gene 6390); experiment: LTEA_HepaRG_SDHB: Life Technologies and Expression Analysis (LTEA) Assay for succinate dehydrogenase complex iron sulfur subunit B (SDHB) using HepaRG (AID 2283528); conditions: actives raise or lower the signal; mRNA level, 48 h
# In short: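 A human HepaRG culture in serum-free induction medium received test chemicals for 48 h over an eight-point range capped at 100 uM. SDHB expression change was quantified by qRT-PCR.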
# [12] = read-out: sulfotransferase 2A1 (SULT2A1), SULT2A1 (gene 6822); experiment: LTEA_HepaRG_SULT2A1: Life Technologies and Expression Analysis (LTEA) Assay for sulfotransferase 2A1 (SULT2A1) using HepaRG (AID 2283531); conditions: actives raise or lower the signal; mRNA level, 48 h
# In short: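 HepaRG human liver cells, 48 h exposure in serum-free induction medium to 8 half-log concentrations topping at 100 µM (0.5% DMSO), duplicate wells. SULT2A1 mRNA measured by TaqMan qRT-PCR, normalized to ACTB/GAPDH/POLR2A; bidirectional fit against DMSO.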
# [13] = CEETOX_H295R_MTT_cell_viability: Viability Assessment in the CeeTox HT-H295R MTT Assay (AID 2283718)
# [14] = read-out: solute carrier (SLC22A1), SLC22A1 (gene 6580); experiment: LTEA_HepaRG_SLC22A1: Life Technologies and Expression Analysis (LTEA) Assay for solute carrier (SLC22A1) using HepaRG (AID 2283524); conditions: actives raise or lower the signal; mRNA level, 48 h
# In short: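 Differentiated human HepaRG cells in serum-free induction medium, exposed 48 h in duplicate to 8-point half-log series from 100 µM top in 0.5% DMSO. SLC22A1 mRNA by TaqMan qRT-PCR normalized to ACTB, GAPDH, POLR2A; bidirectional fit versus DMSO.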
# [15] = CCTE_Shafer_MEA_acute_per_network_burst_spike_number_std: CCTE's Neural Acute Assay for Standard Deviation of Number of Spikes in a Network Burst, Shafer Lab (AID 2284020);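 note: fitted for decrease in spike-number SD versus DMSO so actives lower it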
# In short: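 Rat primary cortical neurons on 48-well MEA (16 electrodes/well), treated DIV 13 or 15 at 0.03-40 uM, ≥3 wells per compound. 40 min recordings at 37 C before and after dosing; value is percent change in network-burst spike-number SD, negative direction vs DMSO.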
# [16] = read-out: Insulin-like growth factor-binding protein 1 (IGFBP1), IGFBP1 (gene 3484); experiment: LTEA_HepaRG_IGFBP1: Life Technologies and Expression Analysis (LTEA) Assay for Insulin-like growth factor-binding protein 1 (IGFBP1) using HepaRG (AID 2283508); conditions: actives raise or lower the signal; mRNA level, 48 h
# In short: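 HepaRG cells, plated 48 h then switched to serum-free induction medium, exposed in duplicate for 48 h to 8-point half-log series from 100 uM in 0.5% DMSO. mRNA measured by qRT-PCR, normalized to ACTB/GAPDH/POLR2A; bidirectional fit versus DMSO.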
structure (smiles),measurement,setting,value
c1ccc2c(c1)-c1cccc3c1c-2cc1ccccc13,AC50,[1],active: 2.37 µM
same,AC50,[2],active: 32.9 µM
same,AC50,[3],active: 10.2 µM
same,outcome,[4],inactive
same,AC50,[5],active: 8.75 µM
O=[N+]([O-])C(CO)(CO)CO,outcome,[6],inactive
same,outcome,[7],inactive
same,outcome,[8],inactive
same,outcome,[9],inactive
O=C1CCC(C2CCCCC2)CC1,outcome,[10],inactive
same,outcome,[11],inactive
same,outcome,[12],inactive
same,outcome,[13],inactive
CCc1cc(C2=C(C(=O)O)N(c3ccccc3C(F)(F)F)S(=O)(=O)c3ccccc32)cc2c1OCO2,AC50,[14],active: 51 µM
same,outcome,[15],inactive
CCCCCCCCOC(=O)CCCCCCCCC(=O)OCCCCCCCC,outcome,[16],inactive
